# Assay results taken from the supplement of paper PMC12067093, “Discovery and optimisation of a covalent ligand for TRIM25 and its application to targeted protein ubiquitination” (Chemical Science, 2025).
# The chains behind the UniProt entries cited, without tags or fusion partners. Where a name states a change or a piece, a line headed by the entry shows the natural chain unless it says otherwise.
# UniProt Q9Y6N5: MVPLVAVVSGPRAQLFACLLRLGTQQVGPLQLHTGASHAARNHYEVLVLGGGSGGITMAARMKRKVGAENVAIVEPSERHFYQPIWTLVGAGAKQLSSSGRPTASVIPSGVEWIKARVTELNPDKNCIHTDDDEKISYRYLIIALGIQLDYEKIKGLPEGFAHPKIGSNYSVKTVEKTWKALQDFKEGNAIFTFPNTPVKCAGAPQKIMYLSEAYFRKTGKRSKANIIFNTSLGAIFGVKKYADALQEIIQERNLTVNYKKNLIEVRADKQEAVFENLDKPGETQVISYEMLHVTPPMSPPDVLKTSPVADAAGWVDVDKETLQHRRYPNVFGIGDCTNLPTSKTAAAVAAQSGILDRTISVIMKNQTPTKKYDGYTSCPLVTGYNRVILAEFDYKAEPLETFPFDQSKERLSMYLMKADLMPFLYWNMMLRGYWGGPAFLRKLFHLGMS
# UniProt O60271: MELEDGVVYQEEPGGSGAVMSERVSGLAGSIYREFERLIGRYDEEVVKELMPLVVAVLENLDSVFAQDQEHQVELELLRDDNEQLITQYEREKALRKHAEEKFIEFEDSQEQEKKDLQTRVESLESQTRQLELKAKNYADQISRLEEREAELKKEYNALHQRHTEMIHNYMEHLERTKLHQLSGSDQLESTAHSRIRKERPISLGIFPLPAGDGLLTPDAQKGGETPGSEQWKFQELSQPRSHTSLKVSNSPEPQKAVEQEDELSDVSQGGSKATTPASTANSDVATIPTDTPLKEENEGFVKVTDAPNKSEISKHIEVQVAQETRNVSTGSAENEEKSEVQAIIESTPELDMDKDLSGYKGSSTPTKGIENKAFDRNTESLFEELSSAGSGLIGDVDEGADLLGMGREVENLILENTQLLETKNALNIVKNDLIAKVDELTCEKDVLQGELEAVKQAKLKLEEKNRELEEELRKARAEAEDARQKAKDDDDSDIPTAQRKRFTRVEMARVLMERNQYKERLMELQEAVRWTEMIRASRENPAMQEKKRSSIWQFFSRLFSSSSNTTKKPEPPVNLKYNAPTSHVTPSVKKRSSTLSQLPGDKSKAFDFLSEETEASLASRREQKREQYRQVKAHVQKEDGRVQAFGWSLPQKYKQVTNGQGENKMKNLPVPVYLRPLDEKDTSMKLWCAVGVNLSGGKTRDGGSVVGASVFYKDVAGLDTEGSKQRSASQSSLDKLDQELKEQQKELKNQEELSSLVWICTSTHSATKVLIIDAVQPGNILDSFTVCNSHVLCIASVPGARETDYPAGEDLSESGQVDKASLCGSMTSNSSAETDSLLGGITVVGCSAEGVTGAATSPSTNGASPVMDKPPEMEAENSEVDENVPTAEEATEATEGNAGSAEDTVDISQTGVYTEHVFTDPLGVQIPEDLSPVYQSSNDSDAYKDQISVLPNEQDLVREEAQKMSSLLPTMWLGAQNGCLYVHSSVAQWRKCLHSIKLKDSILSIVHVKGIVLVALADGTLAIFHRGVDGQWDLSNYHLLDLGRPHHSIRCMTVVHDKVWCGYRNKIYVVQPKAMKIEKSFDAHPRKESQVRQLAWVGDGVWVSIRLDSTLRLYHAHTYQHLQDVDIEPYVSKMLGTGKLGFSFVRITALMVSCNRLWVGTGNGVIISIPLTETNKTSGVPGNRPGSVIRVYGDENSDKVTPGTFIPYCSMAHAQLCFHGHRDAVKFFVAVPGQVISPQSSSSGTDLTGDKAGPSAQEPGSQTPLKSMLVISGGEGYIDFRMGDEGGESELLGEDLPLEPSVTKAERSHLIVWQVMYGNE
# UniProt Q5T280: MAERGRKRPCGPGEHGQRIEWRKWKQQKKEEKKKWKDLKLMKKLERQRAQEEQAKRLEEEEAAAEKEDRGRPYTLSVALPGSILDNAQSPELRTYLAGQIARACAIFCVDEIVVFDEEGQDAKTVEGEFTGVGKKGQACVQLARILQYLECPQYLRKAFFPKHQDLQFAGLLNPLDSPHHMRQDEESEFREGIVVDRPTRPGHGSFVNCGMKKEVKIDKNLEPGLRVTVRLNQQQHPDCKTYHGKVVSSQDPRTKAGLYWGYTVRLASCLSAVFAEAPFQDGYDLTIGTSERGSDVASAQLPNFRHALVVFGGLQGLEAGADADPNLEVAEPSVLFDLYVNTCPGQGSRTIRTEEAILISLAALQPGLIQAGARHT
# UniProt P62318, whole entry, looked up: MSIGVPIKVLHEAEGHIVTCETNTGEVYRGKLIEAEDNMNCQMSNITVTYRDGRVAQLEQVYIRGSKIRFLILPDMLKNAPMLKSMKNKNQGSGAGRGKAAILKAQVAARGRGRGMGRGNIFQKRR
# UniProt P49458: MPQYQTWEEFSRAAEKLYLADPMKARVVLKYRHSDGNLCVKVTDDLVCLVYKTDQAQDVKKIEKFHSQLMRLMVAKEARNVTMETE
# Some of the results follow.
# Compound: CC1Cc2ccccc2N1C(=O)C1CCCN(C1)C(=O)CCl (mixture of isomers) [TRIM25 ligand 11 (diastereomer mixture)]
# Assay: probe-labelled cysteine peptide fold change vs DMSO (competition) (log2 fold change); higher = less target engagement (more negative = stronger competition)
# Settings: THP-1, incubation time: 4 h
# 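Note: competitive chemoproteomic profiling in live THP-1 cells with an iodoacetamide desthiobiotin (IA-DTB) probe, comparing probe-labelled peptide intensities in compound-treated cells against DMSO-treated controls.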
Target,probe-labelled cysteine peptide fold change (10 µM),probe-labelled cysteine peptide fold change (50 µM)
SRGAP2_O75044_588_DIFHDLMACVTMDNLQER (UniProt O75044),-0.0319,0.111
SQOR_Q9Y6N5_337_YPNVFGIGDCTNLPTSK (UniProt Q9Y6N5),-0.0695,-0.0803
SPAG9_O60271_1210_VTPGTFIPYCSMAHAQLCFHGHR (UniProt O60271),0.413,0.532
SNRPB_P14678_45_HMNLILCDCDEFR (UniProt P14678),0.34,0.165
SPOUT1_Q5T280_139_KGQACVQLAR (UniProt Q5T280),-0.0984,-0.0844
SNRPD3_P62318_41_LIEAEDNMNCQMSNITVTYR (UniProt P62318),0.0162,0.0414
SPOUT1_Q5T280_10_KRPCGPGEHGQR (UniProt Q5T280),-0.0193,-0.194
SNX27_Q96L92_30_NGGGGGGGGSGLHCAGNGGGGGGGPR (UniProt Q96L92),-0.0382,-0.125
SRP9_P49458_39_HSDGNLCVK (UniProt P49458),-0.139,0.0147

# Laid out differently: entries from further up.
Target	probe-labelled cysteine peptide fold change (10 µM)	probe-labelled cysteine peptide fold change (50 µM)
SPAG9_O60271_1210_VTPGTFIPYCSMAHAQLCFHGHR (UniProt O60271)	0.413	0.532
SRP9_P49458_39_HSDGNLCVK (UniProt P49458)	-0.139	0.0147
